From PubChem BioAssay AID2417 (National Center for Advancing Translational Sciences (NCATS), 2010)
Hit rate of the full screen: of about 140,000 compounds, about 4,300 (3.1%) were called active. Inconclusive means that the source gave no clear call. Such entries were picked first, then a sample of the others.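 How the source made its calls: active means readout at or below -70, meaning at least 70% loss of cells showing the perinucleolar compartment, a nuclear body marking cancer cells; inconclusive means readout between -30 and a set limit; inactive means the rest.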

Experiment: High Content Assay for Compounds that inhibit the Assembly of the Perinucleolar Compartment;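 further: plate controls were DMSO wells for no effect and camptothecin positive control wells for full effect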
Settings: PC3M PTB-GFP, PNC prevalence imaging, 16 h; at 10 µM; stronger effect = lower value
In short: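 Read-out is percentage of cells bearing a perinucleolar compartment, from automated 20x imaging of fixed, Hoechst-stained PC3M PTB-GFP cells. Cells were seeded 4 h, then exposed 16 h to compound (23 nl of library stock) in duplicate plates.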

| Structure (SMILES) | activity change (PNC), negative = inhibition |
| --- | --- |
| CC(C)(C)C(=O)Cn1ncc(NC2CC2)c(Br)c1=O | inconclusive: -43.9% |
| Cc1ccc([N+](=O)[O-])cc1NC(=O)c1ccc(C(C)(C)C)cc1 | inconclusive: -35.4% |
| Cc1cc(NC(=O)Cc2csc(-c3ccccc3)n2)ccc1Br | inconclusive: -34.7% |
| COc1ccc(Oc2nnc(-c3ccccc3)cc2C#N)cc1 | inconclusive: -60.2% |
| CCOC(=O)NC(=O)/C(C#N)=N/Nc1ccc(F)cc1 | inactive: -9.55% |
| COc1ccc(NS(=O)(=O)c2ccc3nc(COc4ccc5ccccc5c4)[nH]c3c2)cc1 | inconclusive: -43.4% |
| CC(C)(C)NC(=O)NC(=O)COC(=O)c1ccc2c(c1)S(=O)(=O)N=C1CCCCCN12 | inconclusive: -57% |
| C/C(O)=c1/ccc2cccc3nc(C)nc1c23 | inconclusive: -49.1% |
| CC(=O)N1c2ccccc2C(C)CC12CCCCC2 (stereo not drawn) | active: -82.6% |
| CCC(Sc1ccc2nnc(-c3cccnc3)n2n1)C(=O)O (stereo not drawn) | inconclusive: -50.1% |
| O=C(c1ccc(S(=O)(=O)c2ccccc2)cc1)N1CCc2ccccc2C1 | inactive: -26.6% |
| O=S(=O)(NCC1CCCO1)c1cc(Br)c(Br)s1 (stereo not drawn) | inconclusive: -65.4% |
| CCOCCCNCc1ccc(OCc2ccccc2Cl)cc1 | inconclusive: -40.2% |
| Cc1cnc(NC(=O)CSc2nnc(CNc3ccc(F)cc3)n2CC2CCCO2)s1 (stereo not drawn) | inconclusive: -57.8% |
| COc1ccc(-n2c(CCc3ccccc3)nnc2SCC(=O)c2ccccc2)cc1 | inconclusive: -42.4% |
| Cc1ccccc1C(=O)N1CCN(c2ncnc3c2cnn3-c2ccccc2)CC1 | inactive: -23.7% |
| C=CCn1c(=N)n(CC(=O)OC)c2ccccc21 | inconclusive: -70.2% |
| Cc1cc2ccccc2n1CCNC(=O)C1CCCC1 | inconclusive: -54.2% |
| Cc1ccccc1NC(=O)CSc1nnc(Cc2ccccc2)o1 | active: -100% |
| O=C1CSC(c2nn(-c3ccccc3)cc2-c2cc3ccccc3oc2=O)N1Cc1ccco1 (stereo not drawn) | inactive: 134% |

| Structure (SMILES) | activity change (PNC), negative = inhibition |
| --- | --- |
| CCOC(=O)N1CCC(N2Cc3cccc(C(=O)Nc4ccc(CC)cc4)c3C2=O)CC1 | active: -108% |
| O=C(O)C1C2C=CC(C2)C1C(=O)Nc1cccc(F)c1 (stereo not drawn) | inconclusive: -36.5% |
| CS(=O)c1ccccc1COC(=O)Nc1ccc(Cl)cc1 (stereo not drawn) | active: -80.5% |
| CCC(C)NC(=O)CNC(=S)N(CCCN1CCOCC1)Cc1cccs1 (stereo not drawn) | inconclusive: -43.6% |
| Cc1nn(-c2ccccc2)c(N2CCCC2)c1/C=N/NC(=O)c1cc(-c2cccnc2)nc2ccccc12 | inactive: -17.8% |
| O=C(CC1OC(=O)c2ccccc21)Nc1ccccc1N1CCOCC1 (stereo not drawn) | inconclusive: -48.3% |
| CCC1NC(=S)N(C2CCCCC2)C1=O (stereo not drawn) | inactive: 0.74% |
| Cc1nc(C)c(C(=O)C2=C(O)C(=O)N(CCCN(C)C)C2c2ccco2)s1 (stereo not drawn) | active: -80.9% |
| O=C(COC(=O)c1ccc(Br)o1)Nc1nc2ccccc2s1 | inconclusive: -59.1% |
| CCOc1ccc(-n2c(=O)cc(N3CCN(c4ccccc4)CC3)[nH]c2=O)cc1 | inconclusive: -60.9% |
| CCOC(=O)CSc1nnc(-c2ccco2)n1-c1ccc(C)cc1 | inactive: 26.2% |
| O=C(COC(=O)/C=C/c1ccc(S(=O)(=O)N2CCCCCC2)cc1)NCc1ccccc1Cl | inactive: 0.0752% |
| COc1cc(S(=O)(=O)N2CCN(C)CC2)c(OC)cc1Br | inactive: 16.9% |
| COc1ccccc1/C=C/C=C1N=C(/C=C/c2ccc(Cl)cc2)OC/1=O | inactive: 34.6% |
| O=C1OCCC1Sc1nnc(-c2ccc(F)cc2)n1Cc1ccccc1 (stereo not drawn) | inconclusive: -69.4% |
| CCC1CCCCN1C(=O)CSc1nnc(-c2c[nH]c3ccccc23)o1 (stereo not drawn) | inactive: -19.2% |
| COc1ccc(-c2cc(C(=O)Nc3cnn(Cc4ccccc4C)c3)no2)cc1OC | inconclusive: -59.9% |
| O=C(O)c1ccc(N(c2ccccc2)c2ccccc2)cc1 | inconclusive: -69.1% |
| CCCCN1C(=O)C2C3C=CC(C2C1=O)C1C2C(=O)N(CCCC)C(=O)C2C31 (stereo not drawn) | inconclusive: -78.2% |
| S=c1[nH]nc(-c2cccc(Cl)c2)n1CCN1CCCCC1 | inactive: 19.1% |

| Structure (SMILES) | activity change (PNC), negative = inhibition |
| --- | --- |
| Cc1ccc(-c2nc(NC(=O)CSc3ccc4ccccc4n3)ns2)cc1 | inactive: 29.5% |
| Cc1cc(C(=O)CSc2nc3ccccc3[nH]2)c(C)n1Cc1ccco1 | inconclusive: -32.8% |
| CCC(NC(=O)Nc1cc(OC)c(OC)c(OC)c1)(C(F)(F)F)C(F)(F)F | inconclusive: -44.9% |
| COc1cc([N+](=O)[O-])ccc1NC(=O)C[n+]1ccccc1 | inactive: -1% |
| COc1ccc(C(C)=O)cc1CSc1nnc(C)s1 | inactive: -3.47% |
| Cc1nc(N/N=C/c2ccccn2)sc1C | inconclusive: -51.8% |
| O=C(Nc1ccc(-c2nc3ccccc3o2)cc1)c1cc(-n2cnnc2)ccc1Cl | inconclusive: -47.8% |
| COc1ccc2[nH]c(=O)c(CN(C(=O)NC3CCCCC3)C3CCCCC3)cc2c1 | inconclusive: -35.6% |
| O=C(NCCN1CCOCC1)c1cc2n(n1)C(C(F)(F)F)CC(c1ccc(F)cc1)N2 (stereo not drawn) | inconclusive: -43.9% |
| COc1ccc(C(=O)Nc2ccc(Cl)c(S(=O)(=O)Nc3ccccc3OC)c2)cc1 | inconclusive: -55.2% |
| CCN(CC)C(=O)CC(c1ccccc1)c1ccco1 (stereo not drawn) | inactive: -1.07% |
| O=C1CN(C(=O)CCCc2c[nH]c3ccccc23)c2ccccc2N1 | inactive: -11.9% |
| CCOC(=O)CSc1nnc(CNC(=O)c2cccs2)n1-c1cc(OC)ccc1OC | inconclusive: -43.3% |
| CCOC(=O)c1oc2ccccc2c1NC(=O)C1CCCCC1 | inconclusive: -36.7% |
| CCN(CC(=O)NCCc1ccccc1)S(=O)(=O)c1ccc(Br)cc1 | inconclusive: -60.8% |
| CCC1C(O)=C(c2ccccn2)C(=N)N1c1ccccc1 (stereo not drawn) | inconclusive: -31.3% |
| Cc1nc(SCC(=O)NCc2ccc(F)cc2)c2c(=O)n(C)c(=O)n(C)c2n1 | inconclusive: -63.1% |
| CC(=O)c1ccc(NC(=O)COC(=O)c2ccccc2Sc2ccccc2C#N)cc1 | inactive: -6.75% |

Entries above with an aryl thioether with sulfur outside any ring:

| Structure (SMILES) | activity change (PNC), negative = inhibition |
| --- | --- |
| CCC(Sc1ccc2nnc(-c3cccnc3)n2n1)C(=O)O (stereo not drawn) | inconclusive: -50.1% |
| Cc1cnc(NC(=O)CSc2nnc(CNc3ccc(F)cc3)n2CC2CCCO2)s1 (stereo not drawn) | inconclusive: -57.8% |
| COc1ccc(-n2c(CCc3ccccc3)nnc2SCC(=O)c2ccccc2)cc1 | inconclusive: -42.4% |
| Cc1ccccc1NC(=O)CSc1nnc(Cc2ccccc2)o1 | active: -100% |
| CCOC(=O)CSc1nnc(-c2ccco2)n1-c1ccc(C)cc1 | inactive: 26.2% |
| O=C1OCCC1Sc1nnc(-c2ccc(F)cc2)n1Cc1ccccc1 (stereo not drawn) | inconclusive: -69.4% |
| CCC1CCCCN1C(=O)CSc1nnc(-c2c[nH]c3ccccc23)o1 (stereo not drawn) | inactive: -19.2% |
| Cc1ccc(-c2nc(NC(=O)CSc3ccc4ccccc4n3)ns2)cc1 | inactive: 29.5% |
| Cc1cc(C(=O)CSc2nc3ccccc3[nH]2)c(C)n1Cc1ccco1 | inconclusive: -32.8% |
| COc1ccc(C(C)=O)cc1CSc1nnc(C)s1 | inactive: -3.47% |
| CCOC(=O)CSc1nnc(CNC(=O)c2cccs2)n1-c1cc(OC)ccc1OC | inconclusive: -43.3% |
| Cc1nc(SCC(=O)NCc2ccc(F)cc2)c2c(=O)n(C)c(=O)n(C)c2n1 | inconclusive: -63.1% |
| CC(=O)c1ccc(NC(=O)COC(=O)c2ccccc2Sc2ccccc2C#N)cc1 | inactive: -6.75% |
